Test results published in PubChem BioAssay AID504444 (National Center for Advancing Translational Sciences (NCATS), 2011).
Hit rate of the full screen: of about 360,000 compounds, about 7,500 (2.1%) were called active. Inconclusive means that the source gave no clear call. Such entries were picked first, then a sample of the others. The call rests on the fitted dose curve; in most records, active means well fitted inhibition curve with a large enough effect; inconclusive means small, poorly fitted or top-dose-only effect, or effect the other way; inactive means flat fitted curve, though single readings scatter. Where the call is inconclusive, the potency comes from a doubtful curve fit.

Assay: Nrf2 qHTS screen for inhibitors; further: nearly all actives have a fitted effect of over 60% in size
Settings: A549 ARE-Fluc reporter, luciferase luminescence, 18-24 h; series mostly up to 46 µM
Procedure, shortened: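 Cells were seeded and rested 2 h, then exposed to compounds for 18-24 h. CellTiter-Fluor was read first as a viability measure. BugLite was added 15 min before the final luminescent read of ARE-luciferase activity in A549 cells.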
Potency means the concentration at half of the fitted maximal effect.

| SMILES | Potency |
| --- | --- |
| O=C(NCCCN1CCOCC1)c1sc2cc(F)ccc2c1Cl | inconclusive: 16.4 µM [activator, partial curve] |
| C=CCNc1nnc(Sc2ncccc2[N+](=O)[O-])s1 | inactive |
| CCCN1C(=O)c2ccccc2CC1(C)C(=O)NC1CCCCC1 (stereo not drawn) | inactive |
| O=S(=O)(c1cccs1)N1CCN(c2ccc(F)cc2)CC1 | inconclusive: 29.1 µM [falling, single point] |
| CCO[C@@H]1OC(C(=O)N2CCN(Cc3ccccc3)CC2)=C[C@H](c2coc3ccccc3c2=O)[C@H]1CCCO | inconclusive: 29.1 µM [falling, single point] |
| CCOc1ccccc1CNC(=O)c1cnc2sc(N3CCCC3)nn2c1=O | inconclusive: 1.84 µM [activator, partial curve, poor fit] |
| COc1ccc(CCNC(=O)C(=O)NCc2ccc(C)cc2)cc1OC | inactive |
| O=C(Nc1ccc(N2CCN(C(=O)c3ccccc3)CC2)cc1)c1ccc2c(c1)OCCO2 | inconclusive: 18.4 µM [falling, single point] |
| Nc1ccc(N2CCN(c3cccc(Cl)c3)CC2)cc1 | inconclusive: 8.2 µM [falling, partial curve] |
| CCOCCCn1c(SCC(=O)Nc2cccc(OC)c2)nc2ccccc2c1=O | inconclusive: 29.1 µM [falling, single point] |
| COc1cccc(N(C(=O)c2ccco2)c2nc(-c3sc(NC(=O)c4ccco4)nc3C)cs2)c1 | inconclusive: 6.51 µM [activator, single point] |
| COc1ccc(C(=O)Nc2ccc(N3CCCC3)cc2)cc1Br | inactive |
| CCOc1ccc(CCNC(=O)c2ccc3nc(N4CCOCC4)sc3c2)cc1OCC | inconclusive: 29.1 µM [falling, single point] |
| O=C(Nc1cccc(S(=O)(=O)Nc2ccccc2Cl)c1)c1ccc(N2CCCC2)c([N+](=O)[O-])c1 | inconclusive: 29.1 µM [falling, single point] |
| CC1CCN(C(=O)c2cc(-c3cccc(Cl)c3)on2)CC1 | inconclusive: 13 µM [activator, single point] |
| O=C(NCc1ccccc1)c1ccc2nc(-c3ccco3)c(-c3ccco3)nc2c1 | inactive |
| Cc1ccc(-c2nnc(-c3ccccc3)o2)cc1Br | inconclusive: 2.31 µM [activator, full curve] |
| CCCCC[C@H](O)/C=C/C1C(=O)C=C[C@H]1C/C=C\CCCC(=O)OC (stereo partly drawn) | inactive |
| CC1(c2ccc([N+](=O)[O-])cc2)Nc2ccccc2S1 (stereo not drawn) | inconclusive: 6.51 µM [activator, full curve] |
| N=c1c(C(=O)NCc2ccc(F)cc2)cc2c(=O)n3ccccc3nc2n1Cc1cccnc1 | inactive |
| COCCNC(=O)c1cccc(OC2CCN(Cc3ccc(Cl)c(F)c3)CC2)c1 | inconclusive: 29.1 µM [falling, single point] |
| COc1ccc(/C=N/N2C(=O)C3C4C=CC(CC4)C3C2=O)c(OC)c1 (stereo not drawn) | inconclusive: 11.6 µM [activator, partial curve] |
| O=C(Nc1cc(S(=O)(=O)N2CCOCC2)ccc1N1CCOCC1)c1cc2c(s1)CCC2 | inactive |

| SMILES | Potency |
| --- | --- |
| Cc1c(CCC(=O)NCCC(=O)O)c(=O)oc2c(C)c3oc4c(c3cc12)CCCC4 | inconclusive: 7.31 µM [falling, partial curve] |
| O=C(c1ccc(Cl)cc1)c1ccc(OCC(O)CN2CCOCC2)cc1 (stereo not drawn) | inconclusive: 23.1 µM [falling, single point] |
| CCOc1ccc(S(=O)(=O)N2CCN(C(=O)c3oc4ccccc4c3C)CC2)cc1 | inconclusive: 10.3 µM [falling, partial curve] |
| NC(=S)n1[nH]c(-c2ccc([N+](=O)[O-])cc2)c(N=Nc2ccc(Cl)cc2)c1=O | active: 5.17 µM |
| Cc1ccc(-c2nc(CS(=O)(=O)CC(=O)N3CC(C)CC(C)C3)c(C)o2)cc1 (stereo not drawn) | active: 20.6 µM |
| CCN(CC)S(=O)(=O)c1ccc(OC)c(NS(=O)(=O)c2ccc(F)cc2)c1 | inconclusive: 32.6 µM [falling, partial curve, poor fit] |
| Cc1cc(NC(=O)NC(=O)c2ccccc2)no1 | inconclusive: 29.1 µM [activator, single point] |
| COc1ccc(C2=NS(=O)(=O)N(C)C(C(=O)NC3CCCCC3)=C2)cc1 | inconclusive: 16.4 µM [falling, partial curve] |
| CC(C)(C)C(=O)c1cnc(Nc2ccccc2)s1 | inconclusive: 2.31 µM [activator, full curve] |
| O=C1c2ccccc2C(=O)C1Cc1cccc2ccccc12 | inactive |
| Cc1ccc(S(=O)(=O)N2CCOCC2)cc1NC(=O)CNCc1ccc(Cl)cc1Cl | active: 13 µM |
| Cc1ccc(S(=O)(=O)NCC(NCc2ccc(F)cc2)c2ccccc2)cc1 (stereo not drawn) | inconclusive: 29.1 µM [falling, single point] |
| CC(C)Cc1cc(C(=O)Nc2ccc(Br)cc2)no1 | inconclusive: 2.59 µM [activator, single point] |
| Cc1c(NC(=O)c2ccccc2N)cccc1C(=O)O | inconclusive: 5.8 µM [activator, full curve] |
| CC(C)Nc1cccc(S(=O)(=O)N2CCCN(S(=O)(=O)c3ccc4c(c3)OCCO4)CC2)c1 | inconclusive: 25.9 µM [falling, single point] |
| CCOc1ccc(NC(=O)Nc2ccc3snnc3c2)cc1 | inconclusive: 1.84 µM [falling, partial curve, poor fit] |
| Cc1nnc(SCC(=O)Nc2cccc(S(N)(=O)=O)c2)n1-c1ccccc1 | inactive |
| CC(C)C[C@H](NC(=O)OC(C)(C)C)c1nnc(SCc2ccccc2)o1 | inconclusive: 29.1 µM [falling, single point] |
| O=C(/C=C/Nc1ccc(F)cc1)c1ccco1 | inconclusive: 7.31 µM [activator, partial curve] |
| Cc1cccc(C(=O)NC(=S)Nc2ccc(S(=O)(=O)N3CCCCC3)cc2)c1 | inconclusive: 29.1 µM [falling, single point] |
| NC(=O)c1ccc(NC(=O)COC(=O)CCc2ccc(S(=O)(=O)N3CCCCC3)cc2)cc1 | inconclusive: 29.1 µM [falling, single point] |
| O=C(CCc1ccccc1)NCC(=O)N/N=C/c1ccc2c(c1)OCO2 | inconclusive: 5.8 µM [activator, single point] |
| COc1ccc(CCNC(=O)c2c(O)c3c([nH]c2=O)CCCC3)cc1 | inconclusive: 18.4 µM [falling, single point] |

4 compounds picked at random from those above, as already listed:

| SMILES | Potency |
| --- | --- |
| Cc1cc(NC(=O)NC(=O)c2ccccc2)no1 | inconclusive: 29.1 µM [activator, single point] |
| Cc1ccc(S(=O)(=O)NCC(NCc2ccc(F)cc2)c2ccccc2)cc1 (stereo not drawn) | inconclusive: 29.1 µM [falling, single point] |
| NC(=S)n1[nH]c(-c2ccc([N+](=O)[O-])cc2)c(N=Nc2ccc(Cl)cc2)c1=O | active: 5.17 µM |
| CCOc1ccc(NC(=O)Nc2ccc3snnc3c2)cc1 | inconclusive: 1.84 µM [falling, partial curve, poor fit] |

The listing continues.

| SMILES | Potency |
| --- | --- |
| Cc1ccc(OCc2nnc(SCc3cc(=O)[nH]c4ccccc34)n2-c2ccccc2)cc1 | inconclusive: 20.6 µM [falling, single point] |
| COc1ccc(NC(=O)/C(C#N)=C\c2cc(C)n(-c3ccc(Oc4ccc([N+](=O)[O-])cn4)cc3)c2C)cc1 | inconclusive: 7.31 µM [falling, partial curve] |
| Cc1csc2nc(CNC(=O)c3cccc(C(F)(F)F)c3)cn12 | inactive |
| CCOC(=O)c1c(NC(=O)CCCC(=O)O)sc2c1CCC2 | inconclusive: 18.4 µM [falling, single point] |
| CCCc1cc(=O)oc2cc(C)cc(OCC(=O)Nc3ccc(CN4CCOCC4)cc3)c12 | inconclusive: 29.1 µM [falling, single point] |
| O=C(COc1ccc(Cl)cc1)N1CCN(c2ccc([N+](=O)[O-])c(N3CCOCC3)c2)CC1 | inconclusive: 4.61 µM [falling, partial curve] |
| CN(C)S(=O)(=O)c1cccc(NC(=O)c2ccc3nccnc3c2)c1 | active: 5.8 µM |
| Cc1ccc2cccc(NC(=O)c3ccc(Br)o3)c2n1 | inconclusive: 13 µM [falling, partial curve, poor fit] |
| CCCCOc1ccc(-c2ncc(Cl)cn2)cc1 | inconclusive: 9.2 µM [activator, partial curve, poor fit] |
| Cc1ccn2cc(CNS(=O)(=O)c3cccs3)nc2c1 | inconclusive: 23.1 µM [activator, single point] |
| COc1ccc(C(=O)O)cc1S(=O)(=O)Nc1ccc(N2CCCCC2)cc1 | inactive |
| CC(C)c1ccc(NS(=O)(=O)c2ccc3[nH]cc(C(=O)N4CCCC4)c(=O)c3c2)cc1 | inactive |
| Cc1[nH]n(-c2ccccc2)c(=O)c1C(=O)Nc1ccccc1 | inconclusive: 23.1 µM [activator, single point] |
| CC(=O)NC(=C(Cl)Cl)S(=O)(=O)c1ccccc1 | inconclusive: 18.4 µM [activator, partial curve] |
| COc1ccc(N2C(=O)c3ccccc3NC23CCCCC3)cc1 | inconclusive: 0.58 µM [activator, full curve] |
| CC(C)C(NS(=O)(=O)/C=C/c1ccccc1)C(=O)NCc1ccc(F)cc1 (stereo not drawn) | inconclusive: 29.1 µM [falling, single point] |
| COc1ccc(OC(C)c2nc3ccccc3[nH]2)cc1 (stereo not drawn) | active: 9.2 µM |
| COc1ccc(N2CCN(C(=O)c3ccc(NC(=O)C4=CSCCO4)cc3)CC2)cc1 | inactive |
| O=C(CCc1nc2ccccc2c(=O)[nH]1)N1CCN(C/C=C/c2ccccc2)CC1 | inconclusive: 25.9 µM [falling, single point] |
| O=C(Nc1ccc2oc(-c3cccnc3)nc2c1)c1ccc(-c2ccccc2)o1 | active: 13 µM |
| CCc1ccc(NC(=O)C(=O)NCC(c2cccnc2)N2CCN(C)CC2)cc1 (stereo not drawn) | inconclusive: 16.4 µM [falling, single point] |
| C/C(=N\Nc1ccc([N+](=O)[O-])cc1[N+](=O)[O-])c1cccnc1 | inconclusive: 5.8 µM [falling, partial curve, poor fit] |
